{"source": "PubChem BioAssay AID1259405 (NCATS, 2018)", "test": "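Mouse-designed siRNAs used to find CHO productivity engineering targets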 (primary screen)", "cells": "Chinese hamster CHO-K1 ovary cells with stable secreted eGFP expression", "reagents": "single siRNA against mouse genes, 0.8 pmol siRNA per well (2 µl of 400 nM stock)", "timing": "3 days", "detection": "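Per-well intracellular GFP measured by laser scanning cytometry, plus viability from ATP luminescence, each relative to plate median of non-targeting control wells, in %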", "reading the numbers": "GFP, % of control: higher = more GFP per well, higher productivity; viability (ATP), % of control: higher = more viable cells (more ATP)", "call rule": "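Called active when intracellular GFP, relative to negative control, is at or above 120%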", "note": "Here is an unselected part of about 50,000 reagents. About 4,000 of them (8%) were called active. 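Mouse siRNA library applied to hamster cells; one well for each siRNA.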 The numbers tell different reagents against one gene apart."}
{"gene":"Ccdc33 (coiled-coil domain containing 33)","reagent":1,"GFP, % of control":57.6,"viability (ATP), % of control":68.3,"Call":"inactive"}
{"gene":"Ccdc33 (coiled-coil domain containing 33)","reagent":2,"GFP, % of control":62.2,"viability (ATP), % of control":56.4,"Call":"inactive"}
{"gene":"Ccdc33 (coiled-coil domain containing 33)","reagent":3,"GFP, % of control":114,"viability (ATP), % of control":55.6,"Call":"inactive"}
{"gene":"H60a (histocompatibility 60a)","reagent":1,"GFP, % of control":72,"viability (ATP), % of control":51.8,"Call":"inactive"}
{"gene":"H60a (histocompatibility 60a)","reagent":2,"GFP, % of control":48.9,"viability (ATP), % of control":49,"Call":"inactive"}
{"gene":"H60a (histocompatibility 60a)","reagent":3,"GFP, % of control":58.9,"viability (ATP), % of control":69.1,"Call":"inactive"}
{"gene":"Akap8 (A kinase anchor protein 8)","reagent":1,"GFP, % of control":95.4,"viability (ATP), % of control":124,"Call":"inactive"}
{"gene":"Akap8 (A kinase anchor protein 8)","reagent":2,"GFP, % of control":58.2,"viability (ATP), % of control":81.9,"Call":"inactive"}
{"gene":"Or1n2 (olfactory receptor family 1 subfamily N member 2)","reagent":1,"GFP, % of control":91.4,"viability (ATP), % of control":67.5,"Call":"inactive"}
{"gene":"Or1n2 (olfactory receptor family 1 subfamily N member 2)","reagent":2,"GFP, % of control":112,"viability (ATP), % of control":71.5,"Call":"inactive"}
{"gene":"Or1n2 (olfactory receptor family 1 subfamily N member 2)","reagent":3,"GFP, % of control":64.3,"viability (ATP), % of control":97.1,"Call":"inactive"}
{"gene":"Pcdhga6 (protocadherin gamma subfamily A, 6)","reagent":1,"GFP, % of control":65,"viability (ATP), % of control":64.2,"Call":"inactive"}
{"gene":"Pcdhga6 (protocadherin gamma subfamily A, 6)","reagent":2,"GFP, % of control":70.8,"viability (ATP), % of control":77.7,"Call":"inactive"}
{"gene":"Pcdhga6 (protocadherin gamma subfamily A, 6)","reagent":3,"GFP, % of control":84.2,"viability (ATP), % of control":44.4,"Call":"inactive"}
{"gene":"Sly (Sycp3 like Y-linked)","reagent":1,"GFP, % of control":82.3,"viability (ATP), % of control":46.5,"Call":"inactive"}
{"gene":"Sly (Sycp3 like Y-linked)","reagent":2,"GFP, % of control":81.5,"viability (ATP), % of control":83,"Call":"inactive"}
{"gene":"Sly (Sycp3 like Y-linked)","reagent":3,"GFP, % of control":79.7,"viability (ATP), % of control":84.3,"Call":"inactive"}

No new results follow: entries from further up.
{"gene":"Pcdhga6 (protocadherin gamma subfamily A, 6)","reagent":3,"GFP, % of control":84.2,"viability (ATP), % of control":44.4,"Call":"inactive"}
{"gene":"Sly (Sycp3 like Y-linked)","reagent":1,"GFP, % of control":82.3,"viability (ATP), % of control":46.5,"Call":"inactive"}
